From PubChem BioAssay AID220 (DTP/NCI, 2004)
The list does not hold the whole screen: it gathers tests that were run many times, whatever their T/C, doses with no T/C, and many T/C values between a quarter and a half above the control. Other doses and runs of a compound stand elsewhere. T/C: endpoint of the treated group in % of that of the vehicle group. Schedule codes are those of the source, taken here to give the interval after Q, in days (D) or hours (H), and the number of doses after X. Some entries give survivors of the animals treated and no T/C: the source files T/C as zero there, which appears to mark a toxic dose or a test without result, not a measured value. Survivors were counted at the toxicity check, usually on the fifth day, unless a day is given; later deaths do not show. Some entries were tested several times; the values are given in rising order.

Test system: CD8F1 mice, subcutaneous mammary adenocarcinoma, T/C%
Assay: NCI In Vivo Anticancer Drug Screen. Data for tumor model Mammary Adenocarcinoma CD8F1 (subcutaneous) in CD8F1
Settings: higher T/C = larger tumour
How it was run: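 Tumor-bearing mice, transplantable model; readout survival or tumor size; value = treated (T) / vehicle control (C).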

In the case of `O=NN(CCCl)C(=O)NC1[C@H](O)CCC[C@@H]1O` (stereo partly specified), the survivor count (T/C endpoint: median tumor weight change, dose: 25.0 mg/kg/injection, schedule: Q01DX001 (ip), vehicle: saline) is reported as 0 of 10 on day 35, the survivor count (T/C endpoint: median tumor weight change, dose: 50.0 mg/kg/injection, schedule: Q01DX001 (ip), vehicle: saline) is reported as 0 of 10 on day 28 and 0 of 10 on day 35 and the survivor count (T/C endpoint: median tumor weight change, dose: 100.0 mg/kg/injection, schedule: Q01DX001 (ip), vehicle: saline) is reported as 0 of 10 on day 28.
`CC(C#N)(C#N)N=Nc1ccc(Cl)cc1Cl` was tested, and the T/C (T/C endpoint: median tumor weight change, dose: 250.0 mg/kg/injection, schedule: Q01DX001 (ip), vehicle: saline with Tween-80, evaluated on day 28) was 133 % of control and the survivor count (T/C endpoint: median tumor weight change, dose: 2000.0 mg/kg/injection, schedule: Q01DX001 (ip), vehicle: saline with Tween-80) was 0 of 9 on day 28.
`NC(=O)c1ccc[n+](Cc2c(Cl)cccc2Cl)c1` was tested, and the T/C (T/C endpoint: median tumor weight (est.), dose: 24.0 mg/kg/injection, schedule: Q07DX005 (ip), vehicle: saline, evaluated on day 30) was 145 % of control.
For `CC1=C[C@@]23[C@H](C=C(C(=O)O)[C@@H]2COC(=O)[C@]32CO2)[C@@H]1C`, the survivor count (T/C endpoint: median tumor weight change, dose: 8.75 mg/kg/injection, schedule: Q01DX001 (ip), vehicle: saline) was 3 of 10 on day 32, the survivor count (T/C endpoint: median tumor weight change, dose: 17.5 mg/kg/injection, schedule: Q01DX001 (ip), vehicle: saline) was 4 of 10 on day 32 and the survivor count (T/C endpoint: median tumor weight change, dose: 35.0 mg/kg/injection, schedule: Q01DX001 (ip), vehicle: saline) was 0 of 10 on day 32. The survivor count (T/C endpoint: median tumor weight change, dose: 70.0 mg/kg/injection, schedule: Q01DX001 (ip), vehicle: saline) was 0 of 10 on day 32.
In the case of `COC1CC(C)C(OC)c2cc(O)cc(c2O)NC(=O)/C(C)=C/C=C\C(C)C(OC(N)=O)/C(C)=C\C(C)C1OC` (stereo unspecified), the survivor count (T/C endpoint: median tumor weight change, dose: 50.0 mg/kg/injection, schedule: Q01DX001 (ip), vehicle: saline + Tween-80 + alcohol) is reported as 0 of 10 on day 28 and the survivor count (T/C endpoint: median tumor weight change, dose: 100.0 mg/kg/injection, schedule: Q01DX001 (ip), vehicle: saline + Tween-80 + alcohol) is reported as 1 of 10 on day 28.
With `CN1N=C(N)c2cn(C3OC(COP(=O)(O)O)C(O)C3O)c3ncnc1c23` (stereo unspecified) the survivor count (T/C endpoint: median tumor weight (est.), dose: 200.0 mg/kg/injection, schedule: Q07DX005 (ip), vehicle: water) was 0 of 10 on day 30 and the survivor count (T/C endpoint: median tumor weight (est.), dose: 400.0 mg/kg/injection, schedule: Q07DX005 (ip), vehicle: water) was 0 of 10 on day 30.
For `CC[C@](C)(O)C(=O)O[C@H]1C(=O)O[C@@H]2C[C@H]3C(C)=CC(=O)[C@@H](O)[C@]3(C)[C@H]3[C@@]4(O)OC[C@]32[C@@H]1[C@@H](C)[C@H]4O`, the survivor count (T/C endpoint: median tumor weight (est.), dose: 0.5 mg/kg/injection, schedule: Q07DX005 (ip), vehicle: Klucel (hydroxypropylcellulose) (HPC)) was 5 of 10, the survivor count (T/C endpoint: median tumor weight change, dose: 2.0 mg/kg/injection, schedule: Q01DX001 (ip), vehicle: Klucel (hydroxypropylcellulose) (HPC)) was 2 of 10 on day 35 and the survivor count (T/C endpoint: median tumor weight change, dose: 4.0 mg/kg/injection, schedule: Q01DX001 (ip), vehicle: Klucel (hydroxypropylcellulose) (HPC)) was 0 of 10 on day 35. For the same compound, the survivor count (T/C endpoint: median tumor weight change, dose: 6.0 mg/kg/injection, schedule: Q01DX001 (ip), vehicle: Klucel (hydroxypropylcellulose) (HPC)) was 0 of 10 on day 35.
`O=C(O)CCCc1ccc(N(CCCl)CCCl)cc1` was tested, and the T/C (T/C endpoint: median tumor weight (est.), dose: 2.0 mg/kg/injection, schedule: Q07DX005 (ip), vehicle: saline with Tween-80, evaluated on day 30) was 127 % of control, the survivor count (T/C endpoint: median tumor weight (est.), dose: 64.0 mg/kg/injection, schedule: Q07DX005 (ip), vehicle: saline with Tween-80) was 6 of 10 and the survivor count (T/C endpoint: median tumor weight (est.), dose: 64.0 mg/kg/injection, schedule: Q07DX005 (ip), vehicle: saline) was 6 of 10. For the same compound, the survivor count (T/C endpoint: median tumor weight change, dose: 128.0 mg/kg/injection, schedule: Q01DX001 (ip), vehicle: saline with Tween-80) was 1 of 10 on day 27 and the survivor count (T/C endpoint: median tumor weight change, dose: 256.0 mg/kg/injection, schedule: Q01DX001 (ip), vehicle: saline with Tween-80) was 0 of 10 on day 27.
With `Cc1ccc(S(=O)(=O)N/N=C/C(=O)O)cc1` the survivor count (T/C endpoint: median tumor weight (est.), dose: 12.5 mg/kg/injection, schedule: Q07DX005 (ip), vehicle: other) was 5 of 10 on day 30, the survivor count (T/C endpoint: median tumor weight (est.), dose: 200.0 mg/kg/injection, schedule: Q07DX005 (ip), vehicle: other) was 6 of 10 on day 30 and the survivor count (T/C endpoint: median tumor weight (est.), dose: 400.0 mg/kg/injection, schedule: Q07DX005 (ip), vehicle: other) was 2 of 10 on day 30.
